No constants are given. Whether binding was seen depends on the method and setting. Some binding calls cover weakened binding; strength is not graded here.
What was measured:
[1] = molecular target: S6BE-3HH; experiment: dialysis to 50 mM Na citrate-citric acid pH 4.0; self-assembly into crystals
[2] = molecular target: S6BE-3HH; experiment: AFM of 2D arrays on mica, 10:1 Cu(II):protein, 20 mM MES pH 5.6; self-association

B1: S6BE-3HH (protein)
chain: MLIYAVGGYDGNTHLNSVEAYDPERNEWSLVAPLSTRRSGVGVAVLNGLIYAVGGYDGNTHLNSVEAYDPHHNEWSLVAPLSTRRSGVGVAVLNGLIYAVGGYDGNTHLNSVEAYDPERNEWSLVAPLSTRRSGVGVAVLNGLIYAVGGYDGNTHLNSVEAYDPHHNEWSLVAPLSTRRSGVGVAVLNGLIYAVGGYDGNTHLNSVEAYDPERNEWSLVAPLSTRRSGVGVAVLNGLIYAVGGYDGNTHLNSVEAYDPHHNEWSLVAPLSTRRSGVGVAVLNG
- binding [1]: binds
- binding [2]: binds

Source: patent publication US20240290419A1 (KATHOLIEKE UNIVERSITEIT LEUVEN, published 2024)
